# From the supplement of paper PMC6411743
# By UniProt entry, the sequences of proteins in these tests, tags left out. Where a name states a change or a piece, a line headed by the entry shows the natural chain unless it says otherwise.
# UniProt Q96GX2: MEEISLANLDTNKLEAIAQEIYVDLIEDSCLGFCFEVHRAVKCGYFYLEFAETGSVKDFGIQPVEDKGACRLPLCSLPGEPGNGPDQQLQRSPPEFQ
# UniProt Q96S94: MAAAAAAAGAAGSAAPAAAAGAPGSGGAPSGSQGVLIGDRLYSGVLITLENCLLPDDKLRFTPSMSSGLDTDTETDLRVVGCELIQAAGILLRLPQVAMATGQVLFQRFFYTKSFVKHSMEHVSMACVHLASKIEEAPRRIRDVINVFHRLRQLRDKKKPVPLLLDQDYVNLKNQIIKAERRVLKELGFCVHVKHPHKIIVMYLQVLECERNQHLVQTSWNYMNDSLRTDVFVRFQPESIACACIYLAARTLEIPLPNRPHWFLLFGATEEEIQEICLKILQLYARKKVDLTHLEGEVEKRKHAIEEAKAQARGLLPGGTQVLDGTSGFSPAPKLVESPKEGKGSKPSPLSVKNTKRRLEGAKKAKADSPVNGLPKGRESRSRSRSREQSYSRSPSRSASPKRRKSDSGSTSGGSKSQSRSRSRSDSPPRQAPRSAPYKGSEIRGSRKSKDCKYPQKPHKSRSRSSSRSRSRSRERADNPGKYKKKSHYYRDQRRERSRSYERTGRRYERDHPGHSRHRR
# UniProt Q96BZ9: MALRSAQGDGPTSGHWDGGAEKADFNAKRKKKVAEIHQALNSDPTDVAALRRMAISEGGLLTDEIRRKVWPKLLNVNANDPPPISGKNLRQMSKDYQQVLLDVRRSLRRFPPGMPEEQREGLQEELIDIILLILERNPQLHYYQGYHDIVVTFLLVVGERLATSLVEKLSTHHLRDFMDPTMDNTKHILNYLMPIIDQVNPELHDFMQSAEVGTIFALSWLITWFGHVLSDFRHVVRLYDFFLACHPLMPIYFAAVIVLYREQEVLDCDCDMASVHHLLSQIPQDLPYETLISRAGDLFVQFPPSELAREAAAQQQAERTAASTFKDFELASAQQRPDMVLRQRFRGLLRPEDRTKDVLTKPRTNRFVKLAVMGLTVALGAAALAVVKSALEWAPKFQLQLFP
# UniProt Q96JY6: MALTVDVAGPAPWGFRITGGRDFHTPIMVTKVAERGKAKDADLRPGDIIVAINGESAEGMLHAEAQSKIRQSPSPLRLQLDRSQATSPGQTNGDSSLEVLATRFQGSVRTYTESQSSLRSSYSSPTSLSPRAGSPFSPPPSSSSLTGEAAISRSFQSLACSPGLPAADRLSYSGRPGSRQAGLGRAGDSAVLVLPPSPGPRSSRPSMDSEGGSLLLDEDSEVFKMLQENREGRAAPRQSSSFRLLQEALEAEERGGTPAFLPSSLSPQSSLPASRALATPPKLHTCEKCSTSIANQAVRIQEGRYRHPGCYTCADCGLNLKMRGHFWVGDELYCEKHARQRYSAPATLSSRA
# UniProt Q96F86: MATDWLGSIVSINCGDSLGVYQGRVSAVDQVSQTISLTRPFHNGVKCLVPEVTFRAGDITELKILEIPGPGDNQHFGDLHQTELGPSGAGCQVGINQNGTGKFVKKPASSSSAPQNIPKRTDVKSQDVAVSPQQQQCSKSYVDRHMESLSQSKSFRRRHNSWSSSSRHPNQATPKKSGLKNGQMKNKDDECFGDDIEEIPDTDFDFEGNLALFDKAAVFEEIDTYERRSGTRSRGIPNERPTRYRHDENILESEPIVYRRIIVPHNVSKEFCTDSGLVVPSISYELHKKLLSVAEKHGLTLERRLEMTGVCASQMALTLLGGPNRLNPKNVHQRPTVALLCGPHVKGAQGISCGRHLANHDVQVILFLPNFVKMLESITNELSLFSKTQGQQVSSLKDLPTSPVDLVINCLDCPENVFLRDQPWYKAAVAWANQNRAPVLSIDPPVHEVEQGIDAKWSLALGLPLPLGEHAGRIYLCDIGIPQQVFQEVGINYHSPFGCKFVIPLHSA
# UniProt Q96GY3: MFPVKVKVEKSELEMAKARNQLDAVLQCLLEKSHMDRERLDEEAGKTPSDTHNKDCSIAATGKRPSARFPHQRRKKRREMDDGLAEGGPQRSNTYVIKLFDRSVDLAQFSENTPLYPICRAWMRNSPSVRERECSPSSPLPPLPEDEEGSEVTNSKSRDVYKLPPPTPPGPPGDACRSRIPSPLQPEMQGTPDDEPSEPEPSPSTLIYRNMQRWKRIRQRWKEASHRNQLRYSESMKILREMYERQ
# UniProt Q96QZ7: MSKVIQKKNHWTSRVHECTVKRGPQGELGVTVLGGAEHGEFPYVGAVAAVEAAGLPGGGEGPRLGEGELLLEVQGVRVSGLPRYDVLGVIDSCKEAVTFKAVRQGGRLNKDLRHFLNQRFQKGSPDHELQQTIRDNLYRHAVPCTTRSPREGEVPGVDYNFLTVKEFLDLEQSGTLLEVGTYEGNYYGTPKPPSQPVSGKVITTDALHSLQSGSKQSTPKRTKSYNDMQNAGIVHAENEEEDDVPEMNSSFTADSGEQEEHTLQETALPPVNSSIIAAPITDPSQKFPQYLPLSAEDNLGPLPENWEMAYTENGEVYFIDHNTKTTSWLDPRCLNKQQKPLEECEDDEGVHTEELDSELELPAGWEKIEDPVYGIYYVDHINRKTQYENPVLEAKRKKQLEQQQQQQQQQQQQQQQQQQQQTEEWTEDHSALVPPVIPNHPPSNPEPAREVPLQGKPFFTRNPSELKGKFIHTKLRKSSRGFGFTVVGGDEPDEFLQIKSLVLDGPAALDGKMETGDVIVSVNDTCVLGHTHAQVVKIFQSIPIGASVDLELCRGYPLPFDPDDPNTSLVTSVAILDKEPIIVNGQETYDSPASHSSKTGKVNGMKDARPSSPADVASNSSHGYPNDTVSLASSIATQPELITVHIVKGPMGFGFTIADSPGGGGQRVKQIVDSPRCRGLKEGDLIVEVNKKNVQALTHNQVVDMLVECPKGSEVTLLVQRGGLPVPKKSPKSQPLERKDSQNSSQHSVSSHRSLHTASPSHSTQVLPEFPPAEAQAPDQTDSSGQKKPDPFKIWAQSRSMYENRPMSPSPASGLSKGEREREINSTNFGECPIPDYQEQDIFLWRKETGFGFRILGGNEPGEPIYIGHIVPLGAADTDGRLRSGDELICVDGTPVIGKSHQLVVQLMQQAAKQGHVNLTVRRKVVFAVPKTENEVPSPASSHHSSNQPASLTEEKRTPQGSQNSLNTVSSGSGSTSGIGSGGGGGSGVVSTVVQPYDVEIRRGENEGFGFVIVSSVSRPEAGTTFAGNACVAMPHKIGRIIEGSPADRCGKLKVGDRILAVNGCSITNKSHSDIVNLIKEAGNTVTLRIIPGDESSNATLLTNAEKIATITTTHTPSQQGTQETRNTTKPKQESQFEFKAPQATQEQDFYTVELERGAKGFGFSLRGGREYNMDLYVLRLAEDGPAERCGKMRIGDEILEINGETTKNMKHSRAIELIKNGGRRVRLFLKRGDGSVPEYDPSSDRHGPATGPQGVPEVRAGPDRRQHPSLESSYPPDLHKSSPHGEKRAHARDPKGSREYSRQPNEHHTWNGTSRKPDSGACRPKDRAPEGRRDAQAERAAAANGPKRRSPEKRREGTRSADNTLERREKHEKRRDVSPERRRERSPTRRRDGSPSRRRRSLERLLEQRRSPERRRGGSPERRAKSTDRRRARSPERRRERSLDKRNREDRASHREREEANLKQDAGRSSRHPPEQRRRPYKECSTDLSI
# UniProt Q96F46, whole entry: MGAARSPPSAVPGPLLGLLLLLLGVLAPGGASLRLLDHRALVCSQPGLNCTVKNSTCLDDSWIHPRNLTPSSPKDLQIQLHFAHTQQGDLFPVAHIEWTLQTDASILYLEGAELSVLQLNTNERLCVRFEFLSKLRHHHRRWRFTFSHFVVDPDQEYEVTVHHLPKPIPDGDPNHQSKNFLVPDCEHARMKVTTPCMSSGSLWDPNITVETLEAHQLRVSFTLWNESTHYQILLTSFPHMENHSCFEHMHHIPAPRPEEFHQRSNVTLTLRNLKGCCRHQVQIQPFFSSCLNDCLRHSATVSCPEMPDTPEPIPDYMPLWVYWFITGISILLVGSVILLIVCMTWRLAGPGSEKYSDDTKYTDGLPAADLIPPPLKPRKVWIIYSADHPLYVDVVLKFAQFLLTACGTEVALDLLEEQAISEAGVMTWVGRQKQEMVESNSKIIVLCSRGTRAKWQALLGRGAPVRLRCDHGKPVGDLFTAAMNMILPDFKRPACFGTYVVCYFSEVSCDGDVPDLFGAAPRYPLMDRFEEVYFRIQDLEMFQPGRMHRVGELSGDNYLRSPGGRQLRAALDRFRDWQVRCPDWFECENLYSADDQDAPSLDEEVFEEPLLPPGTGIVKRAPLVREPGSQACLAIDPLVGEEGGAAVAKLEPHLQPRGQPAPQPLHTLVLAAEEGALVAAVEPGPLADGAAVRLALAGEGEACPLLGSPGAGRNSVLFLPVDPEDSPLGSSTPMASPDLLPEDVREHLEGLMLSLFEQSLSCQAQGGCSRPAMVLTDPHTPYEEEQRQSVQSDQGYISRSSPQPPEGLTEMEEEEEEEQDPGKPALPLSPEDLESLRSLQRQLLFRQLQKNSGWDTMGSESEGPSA
# UniProt Q96CB9: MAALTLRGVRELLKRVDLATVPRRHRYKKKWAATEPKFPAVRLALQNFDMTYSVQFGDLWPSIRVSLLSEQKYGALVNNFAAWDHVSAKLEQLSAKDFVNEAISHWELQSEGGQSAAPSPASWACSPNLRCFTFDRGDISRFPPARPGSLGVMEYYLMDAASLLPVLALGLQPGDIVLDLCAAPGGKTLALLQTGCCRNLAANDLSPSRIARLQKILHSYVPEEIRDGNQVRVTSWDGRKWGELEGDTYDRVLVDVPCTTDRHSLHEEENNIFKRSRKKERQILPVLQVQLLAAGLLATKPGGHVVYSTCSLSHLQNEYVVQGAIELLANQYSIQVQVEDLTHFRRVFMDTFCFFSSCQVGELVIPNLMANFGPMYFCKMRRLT
# UniProt Q96S99: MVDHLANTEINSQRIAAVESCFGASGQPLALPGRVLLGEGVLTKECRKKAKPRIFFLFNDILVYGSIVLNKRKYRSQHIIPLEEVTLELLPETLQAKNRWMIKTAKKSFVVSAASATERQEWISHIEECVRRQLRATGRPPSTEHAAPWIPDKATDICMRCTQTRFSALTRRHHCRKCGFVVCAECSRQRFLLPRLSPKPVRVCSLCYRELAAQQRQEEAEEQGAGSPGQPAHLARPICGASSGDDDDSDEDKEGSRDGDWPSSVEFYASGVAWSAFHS
# UniProt Q96CU9: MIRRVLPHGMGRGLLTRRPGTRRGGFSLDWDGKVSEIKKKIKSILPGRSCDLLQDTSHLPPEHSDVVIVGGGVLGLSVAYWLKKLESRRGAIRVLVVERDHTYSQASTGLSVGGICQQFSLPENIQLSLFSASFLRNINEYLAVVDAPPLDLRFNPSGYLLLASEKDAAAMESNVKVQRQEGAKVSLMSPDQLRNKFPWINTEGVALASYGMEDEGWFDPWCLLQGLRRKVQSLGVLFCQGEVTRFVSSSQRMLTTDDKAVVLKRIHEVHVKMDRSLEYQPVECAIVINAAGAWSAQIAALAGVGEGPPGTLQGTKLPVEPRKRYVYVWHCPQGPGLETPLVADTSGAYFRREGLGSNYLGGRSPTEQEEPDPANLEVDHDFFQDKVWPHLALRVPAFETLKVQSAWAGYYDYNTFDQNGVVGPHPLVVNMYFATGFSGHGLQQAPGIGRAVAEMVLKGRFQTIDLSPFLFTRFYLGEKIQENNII
# UniProt Q96EM0: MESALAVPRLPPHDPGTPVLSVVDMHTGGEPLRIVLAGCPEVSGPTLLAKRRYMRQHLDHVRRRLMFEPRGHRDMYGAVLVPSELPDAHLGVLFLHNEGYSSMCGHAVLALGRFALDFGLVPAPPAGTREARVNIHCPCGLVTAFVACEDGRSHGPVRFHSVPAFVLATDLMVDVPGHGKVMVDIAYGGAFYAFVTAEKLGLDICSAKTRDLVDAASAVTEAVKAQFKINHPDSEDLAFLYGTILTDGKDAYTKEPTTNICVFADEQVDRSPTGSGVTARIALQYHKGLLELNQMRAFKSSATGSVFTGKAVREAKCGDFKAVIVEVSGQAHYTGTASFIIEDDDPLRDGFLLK
# UniProt Q96EA4: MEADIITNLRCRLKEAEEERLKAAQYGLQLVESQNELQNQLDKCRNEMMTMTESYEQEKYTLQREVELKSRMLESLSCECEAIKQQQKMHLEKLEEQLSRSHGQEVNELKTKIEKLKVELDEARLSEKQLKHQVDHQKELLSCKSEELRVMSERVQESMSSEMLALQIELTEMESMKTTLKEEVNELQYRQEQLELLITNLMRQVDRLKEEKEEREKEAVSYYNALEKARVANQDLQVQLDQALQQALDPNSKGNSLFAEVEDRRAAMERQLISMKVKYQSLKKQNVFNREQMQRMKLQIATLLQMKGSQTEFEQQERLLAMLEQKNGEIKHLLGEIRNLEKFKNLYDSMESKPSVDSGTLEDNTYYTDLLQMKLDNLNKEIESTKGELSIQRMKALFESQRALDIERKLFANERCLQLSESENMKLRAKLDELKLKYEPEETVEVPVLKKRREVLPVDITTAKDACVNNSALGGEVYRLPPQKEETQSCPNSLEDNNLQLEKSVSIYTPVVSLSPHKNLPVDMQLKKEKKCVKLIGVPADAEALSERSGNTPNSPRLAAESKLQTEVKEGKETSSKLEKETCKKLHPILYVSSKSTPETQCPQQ
# ± gives the standard deviation of the averaged measurements. The entries are a selection whose mix differs from that of the whole data set. Most values lie at the level of the controls, where differences are scatter.
# Compound: Nc1ncnc2c1ncn2[C@@H]1O[C@H](COP(=O)(O)OP(=O)(O)OP(=O)(O)O)[C@@H](O)[C@H]1O [adenosine triphosphate]
# Assay: NP40-soluble protein abundance relative to vehicle (solubility fold change) (ratio); higher = more soluble protein in presence of ATP
# Summary of the method: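 Jurkat crude lysate prepared with a Dounce homogeniser was treated at eight concentrations spanning 0.1 to 10 mM, 10 min at room temperature then 3 min at 37 °C. Solubilisation with 0.8% NP40 and benzonase and ultracentrifugation preceded TMT labelling of the supernatant for LC-MS/MS. Fold change against the detergent-processed vehicle was determined per replicate from vsn-normalised intensities, across three independent experiments.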
Target,NP40-soluble protein abundance (concentration: 0.1mM),NP40-soluble protein abundance (concentration: 0.5mM)
UniProt Q96HR8 and related entries,1.03 ± 0.041,1.15 ± 0.056
UniProt Q96SB8 and related entries,1.05 ± 0.036,1.06 ± 0.064
SLC7A6OS (UniProt Q96CW6),0.982 ± 0.061,0.944 ± 0.049
UniProt Q96N66 and related entries,1.06 ± 0.067,1.04 ± 0.024
ALKBH3 (UniProt Q96Q83),1.01 ± 0.05,1.01 ± 0.06
UniProt Q96FJ0 and related entries,1.11 ± 0.066,1.08 ± 0.1
EFHD2 (UniProt Q96C19),0.938 ± 0.051,0.94 ± 0.035
UniProt Q96J02 and related entries,1.09 ± 0.023,1.12 ± 0.02
UniProt Q96CB8 and related entries,0.998 ± 0.034,1.02 ± 0.069
ATXN7L3B (UniProt Q96GX2),0.941 ± 0.1,0.83 ± 0.18
UniProt Q96JC1 and related entries,1.07 ± 0.085,0.971 ± 0.13
HEXIM2 (UniProt Q96MH2),0.92 ± 0.19,0.957 ± 0.081
UniProt Q96EY5,1.06 ± 0.06,1.06 ± 0.061
ZNF830 (UniProt Q96NB3),1.1 ± 0.081,1.14 ± 0.048
PCMTD1 (UniProt Q96MG8),0.963 ± 0.043,0.967 ± 0.077
SFXN2 (UniProt Q96NB2),0.993 ± 0.015,1.07 ± 0.041
UniProt Q96QD8 and related entries,1 ± 0.059,1 ± 0.027
SMG1 (UniProt Q96Q15),1.03 ± 0.039,1.02 ± 0.019
UniProt Q96BN8,1 ± 0.025,0.973 ± 0.035
CCNL2 (UniProt Q96S94),1.05 ± 0.029,1.008 ± 0.0086
UniProt Q96RF0-2|Q96RF0 and related entries,1.08 ± 0.14,1 ± 0.12
UniProt Q96KC2,1.02 ± 0.011,1.05 ± 0.13
UniProt Q96BZ9 and related entries,0.962 ± 0.11,0.914 ± 0.051
SIN3A (UniProt Q96ST3),1.03 ± 0.053,1.04 ± 0.048

Target,NP40-soluble protein abundance (concentration: 0.1mM),NP40-soluble protein abundance (concentration: 0.5mM)
UniProt Q96EE3 and related entries,1.05 ± 0.051,1.05 ± 0.016
PHF12 (UniProt Q96QT6),1.04 ± 0.018,1.03 ± 0.016
UniProt Q96EI5 and related entries,0.937 ± 0.04,0.953 ± 0.046
CCDC127 (UniProt Q96BQ5),0.861 ± 0.14,0.905 ± 0.16
MCEE (UniProt Q96PE7),0.937 ± 0.026,0.95 ± 0.037
UniProt Q96HI0 and related entries,0.983 ± 0.04,0.9728 ± 0.007
UniProt Q96BU1 and related entries,0.983 ± 0.16,0.975 ± 0.17
UniProt Q96JY6 and related entries,0.996 ± 0.071,0.921 ± 0.023
UniProt Q96DA6 and related entries,0.863 ± 0.096,0.895 ± 0.15
UniProt Q96DF8,0.95 ± 0.065,0.93 ± 0.053
UniProt Q96DZ1 and related entries,1.08 ± 0.12,1.06 ± 0.076
UniProt Q96G23,0.983 ± 0.017,0.976 ± 0.066
CDKN2AIPNL (UniProt Q96HQ2),0.93 ± 0.09,0.824 ± 0.3
PDXP (UniProt Q96GD0),0.973 ± 0.026,0.979 ± 0.017
UniProt Q96QU8 and related entries,1.029 ± 0.0063,1.03 ± 0.057
FBXL8 (UniProt Q96CD0),1.01 ± 0.07,0.994 ± 0.11
RBM17 (UniProt Q96I25),1.04 ± 0.033,1.12 ± 0.061
INTS4 (UniProt Q96HW7),1.05 ± 0.025,1.07 ± 0.03
UniProt Q96RU2-2,1 ± 0.11,1.01 ± 0.099
EDC3 (UniProt Q96F86),1.04 ± 0.064,1.09 ± 0.085
UniProt Q96P47 and related entries,0.985 ± 0.056,1.06 ± 0.097
NUDT11 (UniProt Q96G61),1.01 ± 0.04,0.951 ± 0.075
RUFY1 (UniProt Q96T51),1.01 ± 0.036,1.02 ± 0.045
UniProt Q96J84 and related entries,0.971 ± 0.02,0.938 ± 0.099

Target,NP40-soluble protein abundance (concentration: 0.1mM),NP40-soluble protein abundance (concentration: 0.5mM)
PDLIM5 (UniProt Q96HC4),1.01 ± 0.059,1.04 ± 0.062
DNAJC1 (UniProt Q96KC8),1.01 ± 0.07,0.984 ± 0.019
FAHD2A (UniProt Q96GK7),1.06 ± 0.048,1.06 ± 0.056
MARS2 (UniProt Q96GW9),1.02 ± 0.071,0.971 ± 0.063
VPS35 (UniProt Q96QK1),1.02 ± 0.069,1 ± 0.013
PANX1 (UniProt Q96RD7),1.01 ± 0.054,0.968 ± 0.069
UniProt Q96EU6 and related entries,0.932 ± 0.064,0.934 ± 0.01
UniProt Q96D05 and related entries,0.879 ± 0.16,0.813 ± 0.27
UniProt Q96GS4,0.951 ± 0.011,0.916 ± 0.064
LTV1 (UniProt Q96GA3),0.984 ± 0.094,1.01 ± 0.063
UniProt Q96BN2,0.969 ± 0.066,0.9 ± 0.12
UniProt Q96GY0,0.924 ± 0.069,0.874 ± 0.061
CCDC43 (UniProt Q96MW1),0.97 ± 0.037,0.927 ± 0.058
EXOC2 (UniProt Q96KP1),1.05 ± 0.1,1.02 ± 0.052
UniProt Q96PU5 and related entries,0.984 ± 0.032,0.999 ± 0.026
UniProt Q96S19 and related entries,1.03 ± 0.04,0.996 ± 0.051
PAWR (UniProt Q96IZ0),0.963 ± 0.04,0.98 ± 0.034
DUS3L (UniProt Q96G46),1.05 ± 0.044,1.05 ± 0.062
UniProt Q96IJ6 and related entries,1.06 ± 0.049,1.04 ± 0.032
LIN37 (UniProt Q96GY3),0.933 ± 0.083,0.952 ± 0.037
UniProt Q96GJ1-2,1.17 ± 0.23,1.09 ± 0.11
FUBP3 (UniProt Q96I24),1 ± 0.016,0.987 ± 0.028
UniProt Q96L91 and related entries,0.976 ± 0.057,1.03 ± 0.079
UniProt Q96Q42 and related entries,1.31 ± 0.17,1.25 ± 0.18

Target,NP40-soluble protein abundance (concentration: 0.1mM),NP40-soluble protein abundance (concentration: 0.5mM)
UniProt Q96QZ7 and related entries,1.009 ± 0.002,1.11 ± 0.022
UniProt Q96F46 and related entries,0.947 ± 0.057,0.926 ± 0.027
UniProt Q96FC9 and related entries,1.07 ± 0.073,0.922 ± 0.051
FAM111A (UniProt Q96PZ2),1.2 ± 0.21,1.23 ± 0.17
UniProt Q96P16 and related entries,1.03 ± 0.03,0.99 ± 0.034
NSUN4 (UniProt Q96CB9),0.983 ± 0.042,0.99 ± 0.016
TP53RK (UniProt Q96S44),0.979 ± 0.034,0.996 ± 0.038
UniProt Q96PE3 and related entries,1.04 ± 0.082,1.02 ± 0.064
UniProt Q96JM7 and related entries,1.04 ± 0.027,1.08 ± 0.057
UniProt Q96F07-2|E7EVJ5,1.05 ± 0.034,0.995 ± 0.014
SGTB (UniProt Q96EQ0),0.896 ± 0.22,0.877 ± 0.23
UniProt Q96RL7-4|Q96RL7 and related entries,1.06 ± 0.072,1.05 ± 0.027
UniProt Q96T37-3|A0A087WWP4|Q96T37 and related entries,1.02 ± 0.044,1.06 ± 0.027
UniProt Q96JG6,1.04 ± 0.034,1 ± 0.053
RBM18 (UniProt Q96H35),0.783 ± 0.11,0.81383 ± 0.00027
PLEKHF1 (UniProt Q96S99),1.03 ± 0.075,1 ± 0.041
UniProt Q96ED9 and related entries,0.956 ± 0.04,0.932 ± 0.15
UniProt Q96SD1 and related entries,0.971 ± 0.038,0.978 ± 0.046
UniProt Q96K17,0.91 ± 0.1,0.947 ± 0.079
CRAMP1 (UniProt Q96RY5),0.94 ± 0.033,0.951 ± 0.23
UniProt Q96G03 and related entries,1.03 ± 0.093,1.03 ± 0.055
TUBGCP3 (UniProt Q96CW5),0.994 ± 0.1,1.03 ± 0.077
UniProt Q96D96 and related entries,1.04 ± 0.085,1.07 ± 0.1
MRRF (UniProt Q96E11),0.97 ± 0.036,0.869 ± 0.12

# A different layout for some results above:
Target	NP40-soluble protein abundance (concentration: 0.1mM)	NP40-soluble protein abundance (concentration: 0.5mM)
UniProt Q96RF0-2|Q96RF0 and related entries	1.08 ± 0.14	1 ± 0.12
UniProt Q96KC2	1.02 ± 0.011	1.05 ± 0.13
UniProt Q96BZ9 and related entries	0.962 ± 0.11	0.914 ± 0.051
SIN3A (UniProt Q96ST3)	1.03 ± 0.053	1.04 ± 0.048
UniProt Q96EE3 and related entries	1.05 ± 0.051	1.05 ± 0.016

# Remaining list, next part

Target,NP40-soluble protein abundance (concentration: 0.1mM),NP40-soluble protein abundance (concentration: 0.5mM)
UniProt Q96KQ4,1 ± 0.035,0.984 ± 0.043
NACC1 (UniProt Q96RE7),0.954 ± 0.022,0.928 ± 0.015
UniProt Q96K76-4,1.04 ± 0.075,1.04 ± 0.081
PURB (UniProt Q96QR8),0.998 ± 0.029,1.02 ± 0.027
UniProt Q96CU9 and related entries,1.02 ± 0.048,1.04 ± 0.06
UniProt Q96BW5 and related entries,1.05 ± 0.048,1.04 ± 0.059
UniProt Q96EM0,1.07 ± 0.15,1.15 ± 0.13
Sirt1 (UniProt Q96EB6),0.959 ± 0.02,0.973 ± 0.013
FAF2 (UniProt Q96CS3),1.07 ± 0.13,1.03 ± 0.057
UniProt Q96HE7,0.943 ± 0.047,0.986 ± 0.018
UniProt Q96D53,1.09 ± 0.034,1.14 ± 0.039
UniProt Q96IG2 and related entries,1.04 ± 0.024,0.96 ± 0.043
WDYHV1 (UniProt Q96HA8),1.03 ± 0.028,0.991 ± 0.043
UniProt Q96MH6 and related entries,1.12 ± 0.044,1.1 ± 0.077
UniProt Q96SN8 and related entries,1.01 ± 0.06,1.01 ± 0.096
UniProt Q96FZ2,1.01 ± 0.044,1.02 ± 0.064
RBM14 (UniProt Q96PK6),0.991 ± 0.023,1.01 ± 0.028
CCDC97 (UniProt Q96F63),0.958 ± 0.065,0.932 ± 0.033
HSPBAP1 (UniProt Q96EW2),1.02 ± 0.071,0.956 ± 0.055
PIGS (UniProt Q96S52),1.02 ± 0.046,1.06 ± 0.048
UniProt Q96EA4 and related entries,0.941 ± 0.08,0.954 ± 0.022
UniProt Q96G28,0.961 ± 0.034,0.941 ± 0.029
UniProt Q96RQ3 and related entries,1.08 ± 0.011,1.02 ± 0.041
UniProt Q96QE5 and related entries,1.07 ± 0.12,1.08 ± 0.019
